These results are taken from the supplement of paper PMC10735217.

Counter-ions that a name gives are not always drawn. Some of the results follow. Repeats in this data set agree poorly, so a single value says little.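 The human kidney-derived cells carry a stably integrated construct of eight TEAD-binding elements driving luciferase, read by luminescence in a drug-repurposing library screen. A compound counts as a hit when its signal is more than five robust Z scores above the plate mean.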

This experiment relates to HEK293A TEAD-LUC reporter. Kind of experiment: TEAD-luciferase reporter activity (YAP activation), robust Z score vs plate; higher = stronger YAP/TEAD activation. The conditions noted are these: 24 h.

As for `COc1ccc2c3c1O[C@H]1C(=O)CC[C@H]4[C@@H](C2)N(C)CC[C@]314` [Hydrocodone bitartrate], the TEAD-luciferase reporter activity by setting is: (compound concentration: 200 nM) inactive: -0.738; (compound concentration: 2 uM) inactive: -1.28; (compound concentration: 10 uM) inactive: -0.337.

On to `CN1CC[C@@]23CCCC[C@@H]2[C@@H]1Cc1ccc(O)cc13` [Levorphanol tartrate], for which the TEAD-luciferase reporter activity (compound concentration: 2 uM) was inactive: 0.22.

Take `CC(=O)O[C@H]1CC[C@@]2(C)C(=CC[C@H]3[C@@H]4CC[C@H](OC(=O)c5ccccc5)[C@@]4(C)CC[C@@H]32)C1`: the TEAD-luciferase reporter activity was inactive: 0.425 (compound concentration: 200 nM), inactive: 0.127 (compound concentration: 2 uM) and inactive: 1.89 (compound concentration: 10 uM).

For the molecule `CN1Cc2ccccc2[C@H]2c3cccc4[nH]cc(c34)C[C@H]21`, the TEAD-luciferase reporter activity by setting is: (compound concentration: 200 nM) inactive: 1.06; (compound concentration: 2 uM) inactive: -0.134; (compound concentration: 10 uM) inactive: -1.44.

Regarding `C[C@@H]1CC2=CC(=O)CC[C@@H]2[C@H]2CCC3(C)[C@@H](O)CC[C@H]3[C@@H]21` (some centres not stated), the TEAD-luciferase reporter activity is, setting by setting: (compound concentration: 200 nM) inactive: -1.71; (compound concentration: 2 uM) inactive: -0.713; (compound concentration: 10 uM) inactive: 0.376.

In the case of `COc1ccc2c(c1)/C(=C/c1c[nH]cn1)C(=O)N2`, the TEAD-luciferase reporter activity runs as follows: (compound concentration: 200 nM) inactive: -0.408; (compound concentration: 2 uM) inactive: 1.11; (compound concentration: 10 uM) inactive: 3.73.

Take `CCCC(C)C1(CC)C(=O)N=C([O-])NC1=O` (configuration not stated) [Pentobarbital sodium]: the TEAD-luciferase reporter activity runs as follows: (compound concentration: 200 nM) inactive: 0.0849; (compound concentration: 2 uM) inactive: -1.1; (compound concentration: 10 uM) inactive: -0.677.

In the case of `CCCNC(=O)c1ccc(N(C)[C@H](CN2CC[C@H](O)C2)c2ccccc2)cc1`, the TEAD-luciferase reporter activity by setting is: (compound concentration: 200 nM) inactive: -1.31; (compound concentration: 2 uM) inactive: -0.463; (compound concentration: 10 uM) inactive: 1.53.

Turning to `CC(=O)[O][Hg][c]1cc(C(C)(C)CC(C)(C)C)ccc1O`, the TEAD-luciferase reporter activity reads like this: (compound concentration: 200 nM) inactive: 1.19; (compound concentration: 2 uM) inactive: -0.175; (compound concentration: 10 uM) active: 9.04.

Regarding `COc1ccc(CC(C)N)cc1` (configuration not stated), the TEAD-luciferase reporter activity (compound concentration: 200 nM) was inactive: -1.75, the TEAD-luciferase reporter activity (compound concentration: 2 uM) was inactive: -0.805 and the TEAD-luciferase reporter activity (compound concentration: 10 uM) is inactive: -0.867.

`COc1ccc(C(=O)c2c(C)n(CCN3CCOCC3)c3ccccc23)cc1` [pravadoline]: the TEAD-luciferase reporter activity runs as follows: (compound concentration: 200 nM) inactive: -0.822; (compound concentration: 2 uM) inactive: -0.941; (compound concentration: 10 uM) inactive: -0.467.

Take `CN1C(=O)[C@@H](NC(=O)c2cc3cccc4c3n2CCC4)N=C(c2ccccc2)c2ccccc21` [Tarazepide]: the TEAD-luciferase reporter activity is inactive: -1.41 (compound concentration: 200 nM), inactive: 0.622 (compound concentration: 2 uM) and inactive: 4.43 (compound concentration: 10 uM).

On to `CSCC[C@H](NC(=O)[C@H](Cc1ccccc1)NC(=O)CNC(=O)CNC(=O)[C@H](N)Cc1ccc(O)cc1)C(=O)O` [Metenkefalin], for which the TEAD-luciferase reporter activity (compound concentration: 200 nM) is inactive: -0.407, the TEAD-luciferase reporter activity (compound concentration: 2 uM) was inactive: -0.788 and the TEAD-luciferase reporter activity (compound concentration: 10 uM) is inactive: -0.598.

As to `C[C@H]1[C@@H](OCc2ccc(C(=O)O)cc2)O[C@@H]2O[C@@]3(C)CC[C@H]4[C@H](C)CC[C@@H]1[C@@]24OO3` [Artelinic acid], the TEAD-luciferase reporter activity is inactive: 0.267 (compound concentration: 200 nM), inactive: -0.335 (compound concentration: 2 uM) and inactive: -0.839 (compound concentration: 10 uM).

For the molecule `CC(=O)O[C@H]1C[C@@H]2CC[C@@H]3[C@H](CC[C@@]4(C)[C@H]3C[C@H]([N+]3(C)CCCCC3)[C@@H]4OC(C)=O)[C@@]2(C)C[C@@H]1[N+]1(C)CCCCC1` [Pancuronium Br], the TEAD-luciferase reporter activity is inactive: 1.41 (compound concentration: 200 nM) and inactive: -0.419 (compound concentration: 10 uM).

As for `CC(=O)O[C@H]1C[C@@H]2CC[C@@H]3[C@H](CC[C@@]4(C)[C@H]3C[C@H]([N+]3(C)CCCCC3)[C@@H]4OC(C)=O)[C@@]2(C)C[C@@H]1[N+]1(C)CCCCC1` [Pancuronium bromide], the TEAD-luciferase reporter activity (compound concentration: 2 uM) is inactive: -0.798.

Take `COc1ccc2c3c1O[C@H]1C(=O)CC[C@@]4(O)[C@@H](C2)N(C)CC[C@]314` [Oxycodone hydrochloride]: the TEAD-luciferase reporter activity was inactive: -2.02 (compound concentration: 200 nM) and inactive: -0.504 (compound concentration: 10 uM).

Consider `CCC(=O)O[C@@H]1C=C2CC[C@@H]3[C@H](CCC4(C)[C@@H](OC(=O)CC)CC[C@@H]34)C2(C)CC1` (some centres not stated), for which the TEAD-luciferase reporter activity is inactive: -1.58 (compound concentration: 200 nM), inactive: 0.572 (compound concentration: 2 uM) and inactive: 0.738 (compound concentration: 10 uM).

As to `C[C@@]12C(=O)OC(=O)[C@]1(C)[C@@H]1CC[C@@H]2O1` [Cantharidin], the TEAD-luciferase reporter activity (compound concentration: 200 nM) was inactive: 0.52, the TEAD-luciferase reporter activity (compound concentration: 2 uM) was inactive: -1.66 and the TEAD-luciferase reporter activity (compound concentration: 10 uM) was inactive: -1.29.

For `c1ccc(C2(c3ccccc3)OCC(C3CCCCN3)O2)cc1` (configuration not stated), the TEAD-luciferase reporter activity (compound concentration: 200 nM) is inactive: -1.26, the TEAD-luciferase reporter activity (compound concentration: 2 uM) is inactive: -0.211 and the TEAD-luciferase reporter activity (compound concentration: 10 uM) was inactive: -0.448.

For the molecule `FC(F)(F)c1cccc(C2=CCN(CCc3ccc4ccncc4c3)CC2)c1`, the TEAD-luciferase reporter activity reads like this: (compound concentration: 200 nM) inactive: -1.42; (compound concentration: 2 uM) inactive: 0.113; (compound concentration: 10 uM) inactive: 1.37.

Consider `COc1ccc(C(=O)Cc2c(CCN(C)C)cc3c(c2OC)OCO3)c(C(=O)O)c1OC`, for which the TEAD-luciferase reporter activity is, setting by setting: (compound concentration: 200 nM) inactive: -0.0976; (compound concentration: 2 uM) inactive: -0.559; (compound concentration: 10 uM) inactive: -0.623.

In the case of `CCCCSc1ccc(C(SCCN(C)C)c2ccccc2)cc1` (configuration not stated), the TEAD-luciferase reporter activity (compound concentration: 200 nM) is inactive: 0.41, the TEAD-luciferase reporter activity (compound concentration: 2 uM) is inactive: 0.0693 and the TEAD-luciferase reporter activity (compound concentration: 10 uM) is inactive: -1.24.

Regarding `CC(C)c1cccc(C(C)C)c1OCCNCCO`, the TEAD-luciferase reporter activity by setting is: (compound concentration: 200 nM) inactive: -1.52; (compound concentration: 2 uM) inactive: -0.815; (compound concentration: 10 uM) inactive: -0.836.

Turning to `CCCCCCCCCC(=O)O[C@H]1CC[C@H]2[C@@H]3CCC4=CC(=O)CC[C@@H]4[C@H]3CCC12C` (some centres not stated) [Nandrolone decanoate], the TEAD-luciferase reporter activity is, setting by setting: (compound concentration: 200 nM) inactive: -0.67; (compound concentration: 2 uM) inactive: -0.00146; (compound concentration: 10 uM) inactive: -1.43.

With `C[C@@H]1[C@H](O)[C@@H](C)/C=C/C=C/CC/C=C/C=C/C=C/C=C/[C@H](O[C@@H]2O[C@H](C)[C@@H](O)[C@H](N)[C@@H]2O)C[C@@H]2O[C@](O)(C[C@@H](O)[C@H](O)CC[C@@H](O)C[C@@H](O)C[C@@H](O)CC(=O)O[C@H]1C)C[C@H](O)[C@H]2C(=O)O` [Nystatin], the TEAD-luciferase reporter activity by setting is: (compound concentration: 200 nM) inactive: -1.25; (compound concentration: 2 uM) inactive: 0.263; (compound concentration: 10 uM) inactive: 2.61.

Take `O=P1(NCCBr)OCCCN1CCCl` (configuration not stated) [bromofosfamide]: the TEAD-luciferase reporter activity runs as follows: (compound concentration: 200 nM) inactive: -0.307; (compound concentration: 2 uM) inactive: 0.742; (compound concentration: 10 uM) inactive: 0.354.

As to `CN1CCc2cccc(Cl)c2CC1`, the TEAD-luciferase reporter activity (compound concentration: 200 nM) is inactive: -1.02, the TEAD-luciferase reporter activity (compound concentration: 2 uM) was inactive: -0.528 and the TEAD-luciferase reporter activity (compound concentration: 10 uM) was inactive: 1.42.

Consider `CCOc1ccc2nccc([C@@H](O)[C@@H]3CC4CCN3C[C@@H]4CC)c2c1` (some centres not stated), for which the TEAD-luciferase reporter activity by setting is: (compound concentration: 200 nM) inactive: 1.06; (compound concentration: 2 uM) inactive: -0.795; (compound concentration: 10 uM) inactive: -1.1.

In the case of `CC(C)N(CCNC(=O)CN1CCCC1=O)C(C)C` [pramiracetam], the TEAD-luciferase reporter activity is inactive: -1.12 (compound concentration: 200 nM), inactive: -1.57 (compound concentration: 2 uM) and inactive: -1.54 (compound concentration: 10 uM).

Regarding `C[N+]1(CC(=O)c2ccc(-c3ccccc3)cc2)C2CCC1CC(OC(=O)[C@H](CO)c1ccccc1)C2` (some centres not stated), the TEAD-luciferase reporter activity reads like this: (compound concentration: 200 nM) inactive: 0.258; (compound concentration: 2 uM) inactive: -1.47; (compound concentration: 10 uM) inactive: -0.104.
